A unit is not stated for every read-out.
Columns and labels:
[1] = tested on: HepG2 cell lysates; assay: MS-based ABPP to identify liganded cysteines in HepG2 cell lysates; assay type: biochemical, human; details: for average number of peptides with probe modifications: triplicate; for labeled proteins not on the list of DrugBank (non-DrugBank proteins): DrugBank database analysis
Procedure: MS-Based ABPP Experiments to Identify Liganded Cysteines in HepG2 Cell Lysates by NAIA-5 or IAA.
HepG2 cells were lysed in PBS by sonication. After BCA assay and protein normalization, HepG2 cell lysates in PBS (2 mg/mL, 2 mL) were incubated with NAIA-5 and IAA (10 μM), respectively, at room temperature for 1 h with vortexing. Then, the samples were incubated with a master mix solution for CuAAC reaction, containing CuSO4, TBTA, DTB-PEG-azide and TECP (final concentrations are 1 mM, 100 μM, 100 μM and 1 mM respectively). After incubation at room temperature for 1 h with vortexing, pre-chilled acetone (12 mL) was added to the samples and proteins were allowed to precipitate out by storing at −20° C. overnight. The samples were centrifuged at 5,000 g at 4° C. for 10 min, and the supernatant was discarded. The protein pellets labeled by NAIA-5 and IAA were then combined and washed with pre-chilled methanol twice. The protein pellets were then re-dispersed in 1.2% SDS in PBS (w/v), followed by heating at 80° C. for 5 min. Any insoluble solids were discarded by centrifugation at 6,500 g for 5 min, and the supernatant were transferred to PBS solution containing Pierce™ Streptavidin Agarose beads (20349; Thermo Scientific) with final concentration of SDS equal to 0.2% (w/v). The samples and beads were incubated at 4° C. with rotation overnight. The beads were then washed with PBS and water, and re-dispersed in 6M urea in PBS. The samples were reduced by TCEP (1 mM) at 65° C. for 20 min, followed by alkylation with iodoacetamide (18 mM) at 37° C. for 30 min in dark. The beads were then spun down by centrifugation at 1,400 g for 2 min, washed with PBS and re-suspended in 2M urea in PBS. The proteins on the beads were then digested by sequencing grade trypsin (Promega) at 37° C. overnight. After tryptic digestion, the beads were spun down by centrifugation at 1,400 g for 2 min and the supernatant was discarded. The beads were washed thrice with PBS and thrice with water, followed by the addition of elution buffer solution (MeCN/H2O, 1:1, v/v; with 0.1% formic acid) to the beads and incubation for 5 min at 37° C. The probe-modified peptides were eluted out from the beads and the supernatant was collected. The beads were incubated with a new elution buffer solution, spun down and the supernatant solution was combined with the previous solution. The combined solution containing the eluted probe-modified peptides were dried and desalted by C18 Stage tips, and the peptides (200 ng) were sent for LC-MS/MS analysis using Aurora C18 UHPLC column (75 μm i.d.×25 cm length×1.6 μm particle size; IonOpticks, Australia) coupled to timsTOF Pro mass spectrometer (Bruker).
Chromatographic separation was carried out using buffer A (buffer A: 98:2 water:acetonitrile, 0.1% formic acid) and B (acetonitrile: 0.1% formic acid) with the gradient from 98% buffer A to 30% buffer B at a flow rate of 300 nL/min over 100 min, followed by an increase from 30% to 44% buffer B over 5 min, an increase to 95% buffer B in 0.5 min, an isocratic gradient of 95% buffer B over 8.5 min, a decrease of buffer B to 2% in 0.5 min and then an isocratic gradient of 2% buffer B for 5.5 min. MS data was collected over a m/z range of 100 to 1700, and MS/MS range of 100 to 1700. During MS/MS data collection, each TIMS cycle was 1.1 s and included 1 MS+an average of 10 PASEF MS/MS scans.
The data was searched against the Uniprot human database using MaxQuant v2.0.3.0, specified with trypsin digestion (allowed up to 3 missed cleavages) and cysteine carbamidomethylation (+57.02146) as a static modification. The search also allowed up to 5 variable modifications for methionine oxidation (+15.99491), N-terminal acetylation (+42.01056), cysteine modification by NAIA-5 (+681.38500) or cysteine modification by IAA (+494.32167). The peptide false discovery rate (FDR) was set to 1%. […]

[2] = tested on: 231MFP cell lysates; assay: MS-based ABPP with MudPIT to identify liganded cysteines in 231MFP cell lysates; assay type: biochemical, human

| SMILES | number of different proteins with profiled cysteines ([1]; 10 μM, 1 h) | number of proteins also labeled by IAA (overlap) ([1]; 10 μM, 1 h) | number of proteins uniquely profiled (not by IAA) ([1]; 10 μM, 1 h) | population of cysteines profiled in aggregate ([1]; 10 μM, 1 h) | average number of peptides with probe modifications ([1]; 10 μM, 1 h) | labeled proteins not on the list of DrugBank (non-DrugBank proteins) [1] [%] | number of GO biological processes unique for the probe, not found in IAA profiling ([1]; Gene Ontology analysis) | number of probe-modified peptides ([2]; 100 μM, 1 h, MudPIT) | population of cysteines profiled ([2]; 100 μM, 1 h, MudPIT) | number of proteins uniquely profiled (not by IAA) ([2]; 100 μM, 1 h, MudPIT) | number of biological processes regulated by proteins profiled by the probe only ([2]; Gene Ontology analysis) |
| --- | --- | --- | --- | --- | --- | --- | --- | --- | --- | --- | --- |
| C#CCCCCNC(=O)COc1ccc2c(ccn2C(=O)C=C)c1 [NAIA-5] | 3,394 | 905 | 2,489 | 6,387 | 5,269 | 84 | 650 |  |  |  |  |
| C#CCCCCNC(=O)CI [IAA, N-Hex-5-ynyl-2-iodoacetamide, reference compound] |  |  |  | 1,257 | 957 | 76 |  | 6,104 | 3,072 |  |  |
| C#CCCCCNC(=O)COc1cccc2c1ccn2C(=O)C=C [NAIA-4] |  |  |  |  |  |  |  | 18,241 | 6,692 | ~1,800 | 292 |

From US20240103005A1, “N-ACRYLOYLINDOLES AND METHODS OF USE” (The University of Hong Kong, priority 2022, published 2024)
